PubChem BioAssay AID1259405 – NCATS | 2018

- Test: 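Mouse-designed siRNAs used to find CHO productivity engineering targets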 (primary screen)
- Cells: Chinese hamster CHO-K1 ovary cells with stable secreted eGFP expression
- Knock-down reagent: single siRNA against mouse genes, 0.8 pmol siRNA per well (2 µl of 400 nM stock)
- Time to read-out: 3 days
- Read-out: 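Percent of the per-plate non-targeting control median for intracellular GFP per well by laser scanning cytometry and for cell viability by ATP luminescence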
- Direction: GFP, % of control: higher = more GFP per well, higher productivity; viability (ATP), % of control: higher = more viable cells (more ATP)
- Call rule: 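Called active when intracellular GFP, relative to negative control, is at or above 120%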
This is an unselected part of about 50,000 reagents tested. Of all reagents, about 4,000 (8%) are marked active. 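Mouse siRNA library applied to hamster cells; one well for each siRNA.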 Reagents against one gene are numbered here. Reagent sequences are not shown.

How did the screen score Pomt1 #1?
GFP, % of control: 81.8; viability (ATP), % of control: 121; outcome: inactive

With Pomt1 #2, how do the results read?
GFP, % of control: 104; viability (ATP), % of control: 107; outcome: inactive

For Pomt1 #3, how do the results read?
GFP, % of control: 91.9; viability (ATP), % of control: 93.4; outcome: inactive

With Zfp532 #1, how do the results read?
GFP, % of control: 66.3; viability (ATP), % of control: 92.3; outcome: inactive

What is on record for Zfp532 #2?
GFP, % of control: 102; viability (ATP), % of control: 97.2; outcome: inactive

With Zfp532 #3, what does the deposit list?
GFP, % of control: 61.3; viability (ATP), % of control: 65.4; outcome: inactive

What is on record for Ccnb2 #1?
GFP, % of control: 104; viability (ATP), % of control: 70.3; outcome: inactive

For Ccnb2 #2, what was measured?
GFP, % of control: 111; viability (ATP), % of control: 92.6; outcome: inactive

How did the screen score Krt15 #1?
GFP, % of control: 69.2; viability (ATP), % of control: 60.2; outcome: inactive

With Krt15 #2, what was measured?
GFP, % of control: 89; viability (ATP), % of control: 75.9; outcome: inactive

With Gpx4 #1, how do the results read?
GFP, % of control: 79.7; viability (ATP), % of control: 94.7; outcome: inactive

For Gpx4 #2, what does the deposit list?
GFP, % of control: 80.1; viability (ATP), % of control: 59.4; outcome: inactive

For Gpx4 #3, what does the deposit list?
GFP, % of control: 56.9; viability (ATP), % of control: 103; outcome: inactive

What did the screen give for Col7a1 #1?
GFP, % of control: 56.7; viability (ATP), % of control: 94.5; outcome: inactive

With Col7a1 #2, what was measured?
GFP, % of control: 51.8; viability (ATP), % of control: 93.4; outcome: inactive

With Pgc #1, how do the results read?
GFP, % of control: 178; viability (ATP), % of control: 128; outcome: active

For Pgc #2, how do the results read?
GFP, % of control: 75.9; viability (ATP), % of control: 78.8; outcome: inactive

For Pgc #3, how do the results read?
GFP, % of control: 77.3; viability (ATP), % of control: 72.8; outcome: inactive

With Or10ag52 #1, what was measured?
GFP, % of control: 153; viability (ATP), % of control: 98.9; outcome: active

With Or10ag52 #2, how do the results read?
GFP, % of control: 73.4; viability (ATP), % of control: 79.1; outcome: inactive

What did the screen give for Or10ag52 #3?
GFP, % of control: 52.3; viability (ATP), % of control: 45.7; outcome: inactive

A stretch of the results above:
Zfp532 #3 → GFP, % of control: 61.3; viability (ATP), % of control: 65.4; outcome: inactive
Ccnb2 #1 → GFP, % of control: 104; viability (ATP), % of control: 70.3; outcome: inactive
Ccnb2 #2 → GFP, % of control: 111; viability (ATP), % of control: 92.6; outcome: inactive
Krt15 #1 → GFP, % of control: 69.2; viability (ATP), % of control: 60.2; outcome: inactive

The results go on.
With Frzb #1, what was measured?
GFP, % of control: 76.2; viability (ATP), % of control: 49.8; outcome: inactive

For Frzb #2, how do the results read?
GFP, % of control: 70.9; viability (ATP), % of control: 90.8; outcome: inactive

Which result is listed for Frzb #3?
GFP, % of control: 52.7; viability (ATP), % of control: 43; outcome: inactive

What is on record for Adam17 #1?
GFP, % of control: 71.7; viability (ATP), % of control: 70.9; outcome: inactive

How did the screen score Adam17 #2?
GFP, % of control: 68.9; viability (ATP), % of control: 76.2; outcome: inactive

What did the screen give for Adam17 #3?
GFP, % of control: 102; viability (ATP), % of control: 84.8; outcome: inactive

Which result is listed for Ackr2 #1?
GFP, % of control: 95.1; viability (ATP), % of control: 67.6; outcome: inactive

Which result is listed for Ackr2 #2?
GFP, % of control: 95.9; viability (ATP), % of control: 62.4; outcome: inactive

What did the screen give for Ackr2 #3?
GFP, % of control: 71.4; viability (ATP), % of control: 80.7; outcome: inactive

With Extl2 #1, how do the results read?
GFP, % of control: 61.2; viability (ATP), % of control: 72.7; outcome: inactive

How did the screen score Extl2 #2?
GFP, % of control: 74.1; viability (ATP), % of control: 56.8; outcome: inactive

With Extl2 #3, what was measured?
GFP, % of control: 74.8; viability (ATP), % of control: 61.7; outcome: inactive

How did the screen score Pm20d2 #1?
GFP, % of control: 86.4; viability (ATP), % of control: 76.9; outcome: inactive

Which result is listed for Pm20d2 #2?
GFP, % of control: 55.3; viability (ATP), % of control: 44.7; outcome: inactive

Which result is listed for Pm20d2 #3?
GFP, % of control: 81.2; viability (ATP), % of control: 52.6; outcome: inactive

For Mypn #1, what does the deposit list?
GFP, % of control: 78.7; viability (ATP), % of control: 65.6; outcome: inactive

With Mypn #2, what was measured?
GFP, % of control: 81.5; viability (ATP), % of control: 86.4; outcome: inactive

For Mypn #3, what was measured?
GFP, % of control: 44.2; viability (ATP), % of control: 60.5; outcome: inactive

With Vmn1r58 #1, what was measured?
GFP, % of control: 79.7; viability (ATP), % of control: 82.7; outcome: inactive

For Vmn1r58 #2, what was measured?
GFP, % of control: 75.2; viability (ATP), % of control: 67.6; outcome: inactive

How did the screen score Vmn1r58 #3?
GFP, % of control: 54.2; viability (ATP), % of control: 70.8; outcome: inactive
